These are yes or no findings as the source states them, for the method shown. Binding seen in cells or lysates may run through a third protein. Some results given as binding are weak or reduced against the parent protein; the word gives no strength.
Key:
[1] = biological target: KU complex, a heterodimer composed of the KU70 (XRCC6) and KU80 (XRCC5) proteins (human (endogenous in HeLa)) (UniProt P12956+P13010); test: proximity ligation; Duolink PLA on permeabilised, fixed HeLa cells (wildtype and BRCA2-knockout), untreated or 4 mM HU for 3 h; primary antibodies to the two endogenous proteins; HeLa-PARP14 knockout cells as specificity control
[2] = biological target: T1, MRE11 (human (endogenous in HeLa)) (UniProt P49959); test: as above
T1 sequence: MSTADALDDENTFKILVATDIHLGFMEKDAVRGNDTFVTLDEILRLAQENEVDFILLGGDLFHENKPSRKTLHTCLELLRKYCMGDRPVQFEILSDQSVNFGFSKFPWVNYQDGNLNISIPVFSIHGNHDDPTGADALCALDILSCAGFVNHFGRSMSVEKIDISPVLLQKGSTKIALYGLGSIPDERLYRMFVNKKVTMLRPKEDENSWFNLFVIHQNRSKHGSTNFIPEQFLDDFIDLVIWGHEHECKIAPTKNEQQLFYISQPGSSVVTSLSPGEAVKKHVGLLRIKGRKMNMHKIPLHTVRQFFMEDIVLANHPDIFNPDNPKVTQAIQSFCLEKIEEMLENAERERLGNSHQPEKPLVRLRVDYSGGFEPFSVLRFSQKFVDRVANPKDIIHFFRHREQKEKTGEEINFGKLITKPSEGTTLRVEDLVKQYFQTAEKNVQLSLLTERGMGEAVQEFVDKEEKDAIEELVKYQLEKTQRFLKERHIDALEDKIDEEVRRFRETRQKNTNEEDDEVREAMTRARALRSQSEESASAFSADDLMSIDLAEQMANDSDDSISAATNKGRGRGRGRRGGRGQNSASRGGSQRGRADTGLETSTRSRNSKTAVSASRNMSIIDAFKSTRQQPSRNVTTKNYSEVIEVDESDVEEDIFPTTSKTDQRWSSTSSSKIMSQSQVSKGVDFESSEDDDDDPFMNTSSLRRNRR

Protein sequences, listed by entry. Tags and fused reporters are not part of them. Lines headed by an entry give the natural chain unless they say otherwise; changes in a name come on top.
UniProt P12956: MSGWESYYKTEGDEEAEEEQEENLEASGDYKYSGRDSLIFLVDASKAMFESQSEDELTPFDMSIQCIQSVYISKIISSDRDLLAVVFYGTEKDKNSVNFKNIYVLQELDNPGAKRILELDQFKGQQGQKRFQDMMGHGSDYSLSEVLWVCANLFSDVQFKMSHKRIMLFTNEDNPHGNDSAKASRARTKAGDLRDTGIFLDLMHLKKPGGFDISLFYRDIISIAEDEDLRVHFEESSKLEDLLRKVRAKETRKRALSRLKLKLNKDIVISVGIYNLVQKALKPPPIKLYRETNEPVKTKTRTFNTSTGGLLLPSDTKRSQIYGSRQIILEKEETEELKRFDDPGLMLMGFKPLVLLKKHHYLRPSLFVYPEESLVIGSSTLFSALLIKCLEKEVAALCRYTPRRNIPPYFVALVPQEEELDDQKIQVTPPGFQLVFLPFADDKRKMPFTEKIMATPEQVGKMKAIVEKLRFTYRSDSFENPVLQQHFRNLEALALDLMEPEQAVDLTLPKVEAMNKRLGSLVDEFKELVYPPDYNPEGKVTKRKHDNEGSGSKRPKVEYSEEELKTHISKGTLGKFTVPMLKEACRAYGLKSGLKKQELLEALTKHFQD
UniProt P13010: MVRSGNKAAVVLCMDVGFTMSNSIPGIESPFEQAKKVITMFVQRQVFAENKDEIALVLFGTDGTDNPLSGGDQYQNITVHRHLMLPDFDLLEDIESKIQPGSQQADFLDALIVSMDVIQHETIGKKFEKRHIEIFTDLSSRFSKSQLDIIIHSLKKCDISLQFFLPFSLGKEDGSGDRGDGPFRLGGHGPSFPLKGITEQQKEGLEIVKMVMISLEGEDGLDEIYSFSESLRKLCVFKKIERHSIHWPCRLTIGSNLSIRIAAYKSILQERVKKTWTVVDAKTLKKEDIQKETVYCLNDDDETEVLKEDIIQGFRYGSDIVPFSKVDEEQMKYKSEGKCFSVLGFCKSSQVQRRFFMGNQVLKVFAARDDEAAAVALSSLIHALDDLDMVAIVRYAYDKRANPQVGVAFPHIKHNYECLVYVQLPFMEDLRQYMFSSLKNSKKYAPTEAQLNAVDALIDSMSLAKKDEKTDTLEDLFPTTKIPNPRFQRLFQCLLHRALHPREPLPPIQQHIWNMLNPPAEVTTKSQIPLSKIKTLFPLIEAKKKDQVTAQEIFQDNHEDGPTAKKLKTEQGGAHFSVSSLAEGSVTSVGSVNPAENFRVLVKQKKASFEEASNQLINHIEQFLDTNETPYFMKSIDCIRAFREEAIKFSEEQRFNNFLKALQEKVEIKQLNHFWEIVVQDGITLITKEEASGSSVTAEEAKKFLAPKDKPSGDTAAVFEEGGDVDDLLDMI

[3] = biological target: T1, MRE11 (human (endogenous in HeLa)); test: co-IP; co-immunoprecipitation (Supplementary Fig. 4d); cells, bait and conditions not shown

binding [1]: binds | binding [2]: binds | binding [3]: binds
Substance: PARP14 (from UniProt Q460N5 1-1801) (enzyme)

Source: PMC9420157
